The source of these data is publication PMC12073189, “Synthesis and Evaluation of a Novel Zuranolone Analog with High GABAA Receptor PAM Activity and Excellent Pharmacokinetic Profiles” (Molecules, 2025).

The structures appear in SMILES notation. The structures given here were assigned with low confidence; some may be wrong.

A short description of series [1]: Liver microsome metabolic stability (HLM). Conditions: human liver microsomes. Here is the method:
(§1) We quantified S1–S15 and Zuranolone using a UPLC-MS/MS (Agilent 1290 Infinity II UHPLC (Agilent Technologies, Santa Clara, CA, USA) coupled with a QTRAP 5500 MS/MS (ESI source) (SCIEX, Redwood City, CA, USA for MS/MS). The method assessed the content level of S9 and Zuranolone in microsome metabolism and in rat brain tissue and plasma. An ACQUITY UPLC Peptide BEH C18 column (Waters; 50 × 2.1 mm, 1.7 μm; 60 °C; Waters Corporation, Milford, MA, USA) was used with a mobile phase of 0.02% propionic acid in water (A) and acetonitrile (B). The gradient elution of the mobile phase B is carried out as follows: it is 10% from 0 to 0.5 min, 90% from 0.8 to 2.5 min, and 10% from 2.8 to 3.5 min, with a flow rate of 0.40 mL/min. Quantitative analysis was performed on a QTRAP 5500 MS (SCIEX, Redwood City, CA, USA) in positive ionization mode with MRM (multiple reaction monitoring), using progesterone-d9 as the internal standard. MRM transitions and parameters were optimized for each analyte, with collision energies of 25 V (S1–S15), 23 V (Zuranolone), and 30 V (IS), and declustering potentials of 80 V (S1–S15), 90 V (Zuranolone), and 180 V (IS). […]
(§2) To evaluate the metabolic stability of compounds S1–S15 and Zuranolone in RLM and HLM, we designed the following in vitro liver microsome metabolism assay protocol. […] After centrifuging the mixture, we analyzed the supernatant using UPLC-MS/MS. […]

Series [2] can be described thus: Liver microsome metabolic stability (RLM). Conditions: rat liver microsomes. Here is the method: as §1, §2
In general terms: Liver microsomes are a subcellular fraction often used to study metabolism.

As for `C[C@@]1(O)CC[C@@]2(C)[C@@H](CC[C@@H]3[C@@H]2CC[C@]2(C)[C@@H](C(=O)Cn4cnn(-c5ccnc(F)c5)c4=O)CC[C@@H]32)C1`, in series [1], the “HLM T1/2” value was determined as 40 min. Further, the “RLM T1/2” value in series [2] came out at 34 min.
